Test results from patent US11306124B2, “Agonist agents of CD47 inducing programmed cell death and their use in the treatments of diseases associated with defects in programmed cell death” (SORBONNE UNIVERSITE, priority 2016, dated 2022).
Some entries share one result that the patent states for a list of compounds.

Tested on: Trypsin, Chymotrypsin and Proteinase K
Assay: Proteolytic stability (incubation with proteases or in Human Serum)
Assay type: in vitro ADME
Experimental: Proteolytic stability studies were performed by peptides incubation with proteases (such as Trypsin, Chymotrypsin and Proteinase K) or in Human Serum as described earlier (See Karoyan et al. J. Med. Chem. 2016).

For `CSCC[C@@H]1NC(=O)[C@H](C(C)C)NC(=O)[C@H](C(C)C)NC(=O)[C@H](Cc2ccc(O)cc2)NC(=O)[C@H](Cc2ccccc2)NC(=O)[C@H](CCCNC(=N)N)NC(=O)[C@H](CCCCN)NC(=O)[C@H](Cc2c[nH]c3ccccc23)NC1=O` [PKC1, reference compound], the “time in which degraded by Trypsin” value was “less than 2 hours”.
